The target in data set [1] is T1, MRJP-3 (jelly-purified) (Apis mellifera) (UniProt Q17060).
T1 sequence (looked up, limits assumed): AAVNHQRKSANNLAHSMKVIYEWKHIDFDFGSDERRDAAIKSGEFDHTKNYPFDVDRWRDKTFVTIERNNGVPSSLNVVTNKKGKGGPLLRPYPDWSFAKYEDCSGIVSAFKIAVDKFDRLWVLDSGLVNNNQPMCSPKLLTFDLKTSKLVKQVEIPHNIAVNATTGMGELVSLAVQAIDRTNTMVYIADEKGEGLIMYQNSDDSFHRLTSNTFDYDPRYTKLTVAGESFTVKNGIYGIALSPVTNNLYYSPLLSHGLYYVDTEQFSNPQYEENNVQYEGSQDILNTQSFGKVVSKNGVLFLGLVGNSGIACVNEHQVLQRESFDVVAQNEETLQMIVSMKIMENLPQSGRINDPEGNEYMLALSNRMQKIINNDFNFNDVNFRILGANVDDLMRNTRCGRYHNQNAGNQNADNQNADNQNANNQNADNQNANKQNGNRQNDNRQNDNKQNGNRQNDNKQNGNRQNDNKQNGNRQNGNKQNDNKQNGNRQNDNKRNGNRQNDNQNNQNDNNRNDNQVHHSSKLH
In words: MST. The note with it: 25 C, native protein, label: Alexa Fluor 488 (Ulysis).

The target in data set [2] is T1, MRJP-3 (jelly-purified) (Apis mellifera). As to the kind of experiment: EMSA. Particulars: 42.8 uM protein, EMSA: room temperature 0.5-3 h, 0.8% agarose, 1xTAE, native protein.
Setting [3] is: below 18 nt minimum for efficient binding.

pKd: −log10 of the molar value. Construct, isoform or probe ends are uncertain for at least one entry. For some assays here: Weaker means in comparison with the reference protein, sequence or condition of that experiment. For some assays here: At least one verdict rests on a figure or table, not on a statement of the authors. Tags and fusion partners may be left off the protein sequences shown.

Take “UCAUAUGGGCUCACUGUUACUA / UAGUAACAGUGAGCCCAUAUGA [22 nt dsRNA]”: the pKd (usually −log10 of the Kd, conventionally taken in molar units) was 7.96 in data set [1] (first of two binding phases) and 6.82 in data set [1] (second of two binding phases).
As for “ACGCUUCUAACUUCAAGAUUUUACACAAUCAUAUGGGCUCACUGUUACUA / UAGUAACAGUGAGCCCAUAUGAUUGUGUAAAAUCUUGAAGUUAGAAGCGU [50 bp dsRNA]”, the binding result in data set [2] (0.27 uM RNA) was “binds”.
For the sequence UGUGUUUAUAGCGGAUUUUGA [21 nt ssRNA], the binding result in data set [2] was “binds”.
Regarding UGUGUUUAUAGCGGAUUUUG [20 nt ssRNA], the binding result in data set [2] was “binds”.
For AGGUAAGAUGUUGGUAUAGCUGA [23 nt ssRNA], the binding result in data set [2] was “binds”.
As to ACUGUUACUA [10 nt ssRNA], the binding result in data set [2] (setting [3]) is recorded as “binds more weakly”.
Turning to GGCUCACUGUUACUA [15 nt ssRNA], the binding result in data set [2] (setting [3]) is “binds more weakly”.

The record behind these values is PMC6509358, “A Secreted RNA Binding Protein Forms RNA-Stabilizing Granules in the Honeybee Royal Jelly”.
